According to paper PMC3224144:
These are yes or no findings as the source states them, for the method shown. Some entries that bind do so weakly or less than the wild type.

By UniProt entry, the sequences of proteins in these tests, tags left out.
UniProt P03734: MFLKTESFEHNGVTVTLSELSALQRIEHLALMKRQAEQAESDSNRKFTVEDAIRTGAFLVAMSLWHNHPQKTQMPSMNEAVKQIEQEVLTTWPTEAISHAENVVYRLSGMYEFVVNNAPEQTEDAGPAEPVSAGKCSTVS
UniProt P03710: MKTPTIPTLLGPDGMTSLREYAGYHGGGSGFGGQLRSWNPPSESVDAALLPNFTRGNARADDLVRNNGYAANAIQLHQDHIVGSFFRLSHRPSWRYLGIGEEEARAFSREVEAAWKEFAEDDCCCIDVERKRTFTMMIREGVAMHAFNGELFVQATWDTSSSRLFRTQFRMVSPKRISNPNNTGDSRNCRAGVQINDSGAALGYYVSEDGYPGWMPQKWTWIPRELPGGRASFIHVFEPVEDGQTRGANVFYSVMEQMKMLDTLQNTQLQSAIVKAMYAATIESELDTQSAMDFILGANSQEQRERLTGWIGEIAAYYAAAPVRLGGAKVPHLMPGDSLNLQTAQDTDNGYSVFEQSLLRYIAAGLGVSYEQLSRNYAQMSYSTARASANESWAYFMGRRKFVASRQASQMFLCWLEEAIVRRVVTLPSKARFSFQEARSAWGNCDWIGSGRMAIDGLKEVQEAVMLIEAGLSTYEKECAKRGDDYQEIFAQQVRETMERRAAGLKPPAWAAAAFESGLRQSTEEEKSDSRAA

Assays:
Assay in all cases: two-hybrid; array-based yeast two-hybrid screens; each protein as bait (Gal4 DNA-binding domain) and as prey (Gal4 activation domain), N- and C-terminal fusions; bait-prey vector pairs pDEST32-pDEST22, pGBKT7g-pGADT7g, pGBKT7g-pGADCg, pGBKCg-pGADCg, pGBKCg-pGADT7g; ten configurations a pair; positives retested
[1] = target: T1, major tail protein V (bacteriophage lambda) (UniProt P03733)
T1 sequence: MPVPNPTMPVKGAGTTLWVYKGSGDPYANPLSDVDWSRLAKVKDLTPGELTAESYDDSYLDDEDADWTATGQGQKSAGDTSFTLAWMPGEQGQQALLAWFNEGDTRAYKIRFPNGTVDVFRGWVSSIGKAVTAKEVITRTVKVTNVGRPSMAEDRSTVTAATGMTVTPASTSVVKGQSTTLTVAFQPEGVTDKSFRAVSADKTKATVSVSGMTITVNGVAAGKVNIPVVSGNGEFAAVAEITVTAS

M (bacteriophage lambda) = target: T2, M (bacteriophage lambda) (UniProt P03737)
T2 sequence: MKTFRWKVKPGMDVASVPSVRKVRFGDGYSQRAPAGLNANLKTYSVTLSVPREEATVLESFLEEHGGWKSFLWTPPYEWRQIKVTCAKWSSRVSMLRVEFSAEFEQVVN

[2] = target: T3, Integrase (Int) (bacteriophage lambda) (UniProt P03700)
T3 sequence: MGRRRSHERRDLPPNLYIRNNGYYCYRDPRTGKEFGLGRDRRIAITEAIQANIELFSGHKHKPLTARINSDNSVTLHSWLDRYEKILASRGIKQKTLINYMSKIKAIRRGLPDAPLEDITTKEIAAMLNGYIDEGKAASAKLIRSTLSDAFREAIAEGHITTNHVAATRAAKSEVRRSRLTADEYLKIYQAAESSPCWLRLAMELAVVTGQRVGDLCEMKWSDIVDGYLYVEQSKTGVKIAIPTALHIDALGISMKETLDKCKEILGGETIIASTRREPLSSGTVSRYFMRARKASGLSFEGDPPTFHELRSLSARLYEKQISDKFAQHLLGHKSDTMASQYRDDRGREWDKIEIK

[3] = target: G, a tail protein (bacteriophage lambda) (UniProt P03734)
W (bacteriophage lambda) = target: T4, W (bacteriophage lambda) (UniProt P68660)
T4 sequence: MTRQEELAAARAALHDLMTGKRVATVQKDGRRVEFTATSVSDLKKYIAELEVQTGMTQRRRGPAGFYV

[4] = target: T5, DNA packaging protein A (bacteriophage lambda) (UniProt P03708)
T5 sequence: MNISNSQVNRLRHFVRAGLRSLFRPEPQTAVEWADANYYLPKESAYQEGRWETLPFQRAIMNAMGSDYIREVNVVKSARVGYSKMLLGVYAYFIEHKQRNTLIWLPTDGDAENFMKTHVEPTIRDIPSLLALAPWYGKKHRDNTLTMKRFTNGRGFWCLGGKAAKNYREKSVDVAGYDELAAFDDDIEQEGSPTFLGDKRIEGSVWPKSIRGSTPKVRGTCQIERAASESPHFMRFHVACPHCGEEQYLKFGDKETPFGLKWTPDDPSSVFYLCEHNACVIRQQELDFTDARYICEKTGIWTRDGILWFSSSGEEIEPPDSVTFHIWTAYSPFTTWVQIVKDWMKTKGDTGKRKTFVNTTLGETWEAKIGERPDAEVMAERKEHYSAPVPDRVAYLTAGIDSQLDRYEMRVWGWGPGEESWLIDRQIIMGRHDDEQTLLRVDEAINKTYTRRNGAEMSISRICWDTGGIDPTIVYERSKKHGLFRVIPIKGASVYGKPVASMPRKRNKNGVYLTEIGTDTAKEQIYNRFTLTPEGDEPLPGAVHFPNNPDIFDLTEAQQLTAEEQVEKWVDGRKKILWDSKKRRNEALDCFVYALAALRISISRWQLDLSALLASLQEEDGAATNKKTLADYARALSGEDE

[5] = target: T6, RexB (bacteriophage lambda) (UniProt P03759)
T6 sequence: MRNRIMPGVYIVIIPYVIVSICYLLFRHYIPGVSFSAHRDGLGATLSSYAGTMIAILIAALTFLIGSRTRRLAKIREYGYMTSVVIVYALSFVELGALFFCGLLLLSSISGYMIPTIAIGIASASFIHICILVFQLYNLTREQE

[6] = target: T7, antiterminator N (bacteriophage lambda) (UniProt P03045)
T7 sequence: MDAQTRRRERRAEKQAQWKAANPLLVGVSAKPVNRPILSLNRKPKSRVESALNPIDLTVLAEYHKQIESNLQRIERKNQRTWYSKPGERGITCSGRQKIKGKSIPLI

[7] = target: Bet (= β, strand annealing protein) (bacteriophage lambda) (UniProt P03698)
[8] = compound: T8, P (bacteriophage lambda) (UniProt P03689)
T8 sequence: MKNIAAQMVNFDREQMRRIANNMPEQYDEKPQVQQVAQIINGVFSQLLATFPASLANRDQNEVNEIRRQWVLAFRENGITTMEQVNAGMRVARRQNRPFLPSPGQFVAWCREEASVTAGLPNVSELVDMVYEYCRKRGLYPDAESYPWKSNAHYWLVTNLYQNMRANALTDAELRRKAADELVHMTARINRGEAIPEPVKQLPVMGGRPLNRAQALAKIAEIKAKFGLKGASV

[9] = compound: T9, O (bacteriophage lambda) (UniProt P03688)
T9 sequence: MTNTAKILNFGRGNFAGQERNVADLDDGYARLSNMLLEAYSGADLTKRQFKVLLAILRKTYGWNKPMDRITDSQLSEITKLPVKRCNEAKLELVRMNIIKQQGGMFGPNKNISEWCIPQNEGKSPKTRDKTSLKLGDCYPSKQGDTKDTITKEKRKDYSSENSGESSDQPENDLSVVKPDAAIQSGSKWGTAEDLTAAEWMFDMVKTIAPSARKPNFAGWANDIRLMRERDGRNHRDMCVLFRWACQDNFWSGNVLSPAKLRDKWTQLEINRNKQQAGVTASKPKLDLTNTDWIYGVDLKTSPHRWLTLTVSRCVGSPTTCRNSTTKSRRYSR

[10] = target: T10, CIII (bacteriophage lambda), P03044; settings: remark: other sources report otherwise
T10 chain: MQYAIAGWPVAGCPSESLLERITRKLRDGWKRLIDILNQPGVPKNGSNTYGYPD

G, a tail protein (from UniProt P03734 1-140)
binding [1]: binds
binding (M (bacteriophage lambda)): binds
binding [2]: binds
binding [3]: binds

portal protein B (from UniProt P03710 1-533)
binding (W (bacteriophage lambda)): binds

B1: DNA packaging protein A (protein, UniProt P03708 1-641)
chain: T5 sequence
binding [2]: binds
binding [4]: binds
binding [5]: binds

B2: Bet (= β, strand annealing protein) (protein, UniProt P03698 1-261)
chain: MSTALATLAGKLAERVGMDSVDPQELITTLRQTAFKGDASDAQFIALLIVANQYGLNPWTKEIYAFPDKQNGIVPVVGVDGWSRIINENQQFDGMDFEQDNESCTCRIYRKDRNHPICVTEWMDECRREPFKTREGREITGPWQSHPKRMLRHKAMIQCARLAFGFAGIYDKDEAERIVENTAYTAERQPERDITPVNDETMQEINTLLIALDKTWDDDLLPLCSQIFRRDIRASSELTQAEAVKALGFLKQKAAEQKVAA
binding [6]: binds
binding [7]: binds
binding [2]: binds
binding [4]: binds
binding [8]: binds

B3: P (protein, UniProt P03689 1-233)
chain: T8 sequence
binding [9]: binds

B4: CIII, P03044 1-54 (protein)
chain: T10 chain
binding [10]: no binding
